PubChem BioAssay AID720504 (National Center for Advancing Translational Sciences (NCATS), 2013)
Hit rate of the full screen: of about 360,000 compounds, about 10,000 (2.8%) were called active. Inconclusive results, whose numbers are uncertain, are shown with a selection of clear calls. Calls follow the shape of the dose curve; as a rule, active = well fitted inhibition curve with a large enough effect; inconclusive = small, poorly fitted or top-dose-only effect; inactive = flat fitted curve, though single readings scatter. Potencies of inconclusive entries are doubtful fits and often do not repeat.

Protein sequences, listed by entry. Tags and fused reporters are not part of them.
UniProt P53350, whole entry, looked up: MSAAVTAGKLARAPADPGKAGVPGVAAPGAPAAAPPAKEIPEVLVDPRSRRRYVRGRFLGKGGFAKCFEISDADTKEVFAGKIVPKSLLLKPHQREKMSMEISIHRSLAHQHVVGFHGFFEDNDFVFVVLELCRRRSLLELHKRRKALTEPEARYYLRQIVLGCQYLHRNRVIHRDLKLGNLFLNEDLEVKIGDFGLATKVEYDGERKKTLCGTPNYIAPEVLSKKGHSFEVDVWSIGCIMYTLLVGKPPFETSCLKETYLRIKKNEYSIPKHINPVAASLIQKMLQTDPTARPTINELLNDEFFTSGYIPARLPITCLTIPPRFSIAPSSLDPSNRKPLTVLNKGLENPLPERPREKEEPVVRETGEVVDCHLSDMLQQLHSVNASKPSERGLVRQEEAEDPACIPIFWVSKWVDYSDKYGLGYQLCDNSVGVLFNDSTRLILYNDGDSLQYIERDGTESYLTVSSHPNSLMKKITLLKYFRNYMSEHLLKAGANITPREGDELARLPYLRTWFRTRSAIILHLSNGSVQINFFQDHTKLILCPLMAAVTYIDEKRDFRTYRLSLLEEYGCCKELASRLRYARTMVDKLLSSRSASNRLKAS

Target: Serine/threonine-protein kinase PLK1 (Homo sapiens) (UniProt P53350)
Assay: qHTS for Inhibitors of PLK1-PDB (polo-like kinase 1 - polo-box domain): Primary Screen; also: nearly all actives have a fitted effect of over 65% in size; as to max response, negative = inhibition: series mostly up to about 57 µM
Conditions: Plk1 PBD binding of FITC phosphopeptide, fluorescence polarization
% is scaled to controls: 0 for no effect and ±100 for the full control effect; potency is read from the fitted curve at half-maximal effect.

| Compound | Potency | max response, negative = inhibition |
| --- | --- | --- |
| Cc1cc(=O)[nH]c(SCC(=O)NCc2ccco2)n1 | inconclusive: 23.8 µM [inhibitor, single point] |  |
| O=S(=O)(NCc1nnc2ccccn12)c1ccc(F)cc1 |  | inactive: -13% |
| Cc1ccc(NC(=S)Nc2cccc(-c3n[nH]c(=S)o3)c2)cc1 | inconclusive: 26.7 µM [inhibitor, partial curve] |  |
| O=[N+]([O-])c1ccc(O)c(/C=N/Nc2nn[nH]n2)c1 |  | inactive: -16.2% |
| CN(C)S(=O)(=O)c1cccc(NC(=S)Nc2ccc(Cl)cc2Cl)c1 | inconclusive: 18.9 µM [inhibitor, partial curve] |  |
| N#C/C(=C\c1cccnc1)C(=O)Nc1cccc2ccccc12 | inconclusive: 26.7 µM [inhibitor, partial curve] |  |
| CCOc1ccccc1OCCCC(=O)N1CCN(S(=O)(=O)c2ccc(C)cc2)CC1 | inconclusive: 29.9 µM [inhibitor, single point] |  |
| CCc1ccc(N=C2N=C(N)c3ccccc32)cc1 | inconclusive: 21.2 µM [inhibitor, partial curve] |  |
| O=[N+]([O-])c1ccc(Sc2nnnn2-c2ccccc2)nc1 | inconclusive: 18.9 µM [inhibitor, partial curve] |  |
| CC(C)COC(=O)C(C)Nc1n[nH]c(=S)[nH]c1=O (centres undefined) | inconclusive: 29.9 µM [inhibitor, partial curve] |  |
| O=c1c(C(c2ccc(F)cc2)c2c(O)nc3n(c2=O)CCCS3)c(O)nc2n1CCCS2 | inconclusive: 29.9 µM [inhibitor, partial curve] |  |
| COc1ccc(OC)c(C(c2c(C)[nH][nH]c2=O)c2c(C)[nH][nH]c2=O)c1 | inconclusive: 29.9 µM [inhibitor, partial curve] |  |
| COc1cc(/C=N/N2CCCCC2)cc(OC)c1O | inconclusive: 26.7 µM [inhibitor, single point] |  |
| CC(Sc1ccccc1F)C(=O)Nc1cccc(S(=O)(=O)N2CCOCC2)c1 (centres undefined) | inconclusive: 23.8 µM [inhibitor, partial curve] |  |
| COc1cc(NC(=O)CCc2nnc3ccc(N4CCCC4)nn23)cc(OC)c1OC | inconclusive: 26.7 µM [inhibitor, single point] |  |
| CCOC(=O)/C(=N\Nc1ccccc1)S(=O)(=O)c1ccccc1 |  | inactive: -4.42% |
| O=C(NC1CCCC1)C(c1ccccc1)n1c(-c2ccc3c(c2)CCO3)nc2ccccc21 (centres undefined) |  | inactive: -4.66% |
| O=C(O)/C=C/c1ccc(O)cc1 |  | inactive: -9.39% |
| Cc1cc(C(=O)NC2CC(C)(C)Cc3c2cnn3-c2ccc(F)cc2)nn1C (centres undefined) | inconclusive: 29.9 µM [inhibitor, partial curve] |  |

A different layout for two compounds above.
Compound	Potency	max response, negative = inhibition
O=[N+]([O-])c1ccc(O)c(/C=N/Nc2nn[nH]n2)c1		inactive: -16.2%
COc1ccc(OC)c(C(c2c(C)[nH][nH]c2=O)c2c(C)[nH][nH]c2=O)c1	inconclusive: 29.9 µM [inhibitor, partial curve]	
